# Assay results published in the supplement of paper PMC8728848.
# The other results are listed elsewhere or left out.
# How the values were obtained:
# Test in all cases: glycan array binding signal (z-score within array); higher = stronger binding
# Conditions in all cases: glycan notation: IUPAC condensed, linker removed
# Gal3S(b1-4)Glc = target: Gal3S(b1-4)Glc
# Outline: (§1)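 Arrays were curated from the Consortium for Functional Glycomics database, 3228 in total, and kept only where the protein sequence was available. Binding is expressed as a within-array Z-score. This score was averaged across arrays of the same protein sequence at different concentrations or buffers and across linkers, and negative values can be read as non-binding.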
# Gal3S(b1-4)Glc6S = target: Gal3S(b1-4)Glc6S
# Outline: as §1
# Gal3S(b1-4)GlcNAc = target: Gal3S(b1-4)GlcNAc
# Outline: as §1
# [1] = target: Gal3S(b1-4)[Fuc(a1-3)]Glc6S
# Outline: as §1
# [2] = target: Gal3S(b1-4)[Fuc(a1-3)]GlcNAc
# Outline: as §1
# [3] = target: Gal3S(b1-4)[Fuc(a1-3)]GlcNAc6S
# Outline: as §1
# Gal3S4S(b1-4)GlcNAc = target: Gal3S4S(b1-4)GlcNAc
# Outline: as §1
# Gal3S6S(b1-4)GlcNAc = target: Gal3S6S(b1-4)GlcNAc
# Outline: as §1
# Gal3S6S(b1-4)GlcNAc6S = target: Gal3S6S(b1-4)GlcNAc6S
# Outline: as §1
# Gal4S(b1-4)GlcNAc = target: Gal4S(b1-4)GlcNAc
# Outline: as §1
# Gal4S6S(b1-4)GlcNAc = target: Gal4S6S(b1-4)GlcNAc
# Outline: as §1
# Gal6P(b1-4)GlcNAc = target: Gal6P(b1-4)GlcNAc
# Outline: as §1
# Gal6S(b1-3)GlcNAc = target: Gal6S(b1-3)GlcNAc
# Outline: as §1
# Gal6S(b1-3)GlcNAc6S = target: Gal6S(b1-3)GlcNAc6S
# Outline: as §1
# Gal6S(b1-4)Glc = target: Gal6S(b1-4)Glc
# Outline: as §1
# Gal6S(b1-4)Glc6S = target: Gal6S(b1-4)Glc6S
# Outline: as §1
# Gal6S(b1-4)GlcNAc = target: Gal6S(b1-4)GlcNAc
# Outline: as §1
# Gal6S(b1-4)GlcNAc6S = target: Gal6S(b1-4)GlcNAc6S
# Outline: as §1
# GalNAc(a1-3)Gal = target: GalNAc(a1-3)Gal
# Outline: as §1
# GalNAc(a1-3)GalNAc = target: GalNAc(a1-3)GalNAc
# Outline: as §1
# [4] = target: GalNAc(a1-3)GalNAc(a1-3)Gal(a1-4)Gal(b1-4)GlcNAc
# Outline: as §1
# [5] = target: GalNAc(a1-3)GalNAc(b1-3)Gal(a1-4)Gal(b1-4)Glc
# Outline: as §1
# GalNAc(b1-3)Gal = target: GalNAc(b1-3)Gal
# Outline: as §1
# [6] = target: GalNAc(b1-3)Gal(a1-4)Gal(b1-4)GlcNAc
# Outline: as §1
# [7] = target: GalNAc(b1-3)Gal(a1-4)Gal(b1-4)GlcNAc(b1-3)Gal(b1-4)Glc
# Outline: as §1
# [8] = target: GalNAc(b1-3)Gal(a1-6)Gal(b1-4)Glc
# Outline: as §1
# GalNAc(b1-3)GalNAc = target: GalNAc(b1-3)GalNAc
# Outline: as §1
# GalNAc(b1-3)GlcNAc = target: GalNAc(b1-3)GlcNAc
# Outline: as §1
# GalNAc(b1-4)Gal(b1-4)Glc = target: GalNAc(b1-4)Gal(b1-4)Glc
# Outline: as §1
# GalNAc(b1-4)GlcNAc = target: GalNAc(b1-4)GlcNAc
# Outline: as §1
# [9] = target: GalNAc(b1-4)GlcNAc(b1-2)Man
# Outline: as §1
# [10] = target: GalNAc(b1-4)GlcNAc(b1-2)Man(a1-3)[GalNAc(b1-4)GlcNAc(b1-2)Man(a1-6)]Man(b1-4)GlcNAc(b1-4)GlcNAc
# Outline: as §1
# [11] = target: GalNAc(b1-4)GlcNAc(b1-3)GalNAc(b1-4)GlcNAc
# Outline: as §1
# GalNAc(b1-4)GlcNAc6S = target: GalNAc(b1-4)GlcNAc6S
# Outline: as §1
# GalNAc(b1-6)GalNAc = target: GalNAc(b1-6)GalNAc
# Outline: as §1
# GalNAc3S(b1-4)GlcNAc = target: GalNAc3S(b1-4)GlcNAc
# Outline: as §1
# GalNAc3S(b1-4)GlcNAc3S = target: GalNAc3S(b1-4)GlcNAc3S
# Outline: as §1
# [12] = target: GalNAc3S(b1-4)[Fuc(a1-3)]GlcNAc
# Outline: as §1
# GalNAc4S6S(b1-4)GlcNAc = target: GalNAc4S6S(b1-4)GlcNAc
# Outline: as §1
# GalNAc6S(b1-4)GlcNAc = target: GalNAc6S(b1-4)GlcNAc
# Outline: as §1
# Glc(a1-4)Glc = target: Glc(a1-4)Glc
# Outline: as §1
# [13] = target: Glc(a1-4)Glc(a1-4)Glc(a1-4)Glc
# Outline: as §1
# Glc(a1-6)Glc(a1-6)Glc = target: Glc(a1-6)Glc(a1-6)Glc
# Outline: as §1
# [14] = target: Glc(a1-6)Glc(a1-6)Glc(a1-6)Glc
# Outline: as §1
# Glc(b1-4)Glc = target: Glc(b1-4)Glc
# Outline: as §1
# Glc(b1-6)Glc = target: Glc(b1-6)Glc
# Outline: as §1
# GlcA(b1-3)Gal = target: GlcA(b1-3)Gal
# Outline: as §1
# GlcA(b1-3)GlcNAc = target: GlcA(b1-3)GlcNAc
# Outline: as §1
# GlcA(b1-6)Gal = target: GlcA(b1-6)Gal
# Outline: as §1
# [15] = target: GlcA3S(b1-3)Gal(b1-4)GlcNAc(b1-2)Man
# Outline: as §1
# [16] = target: GlcA3S(b1-3)Gal(b1-4)GlcNAc(b1-3)Gal(b1-4)Glc
# Outline: as §1
# [17] = target: GlcNAc(a1-3)Gal(b1-4)GlcNAc
# Outline: as §1
# [18] = target: GlcNAc(a1-4)Gal(b1-3)GlcNAc
# Outline: as §1
# [19] = target: GlcNAc(a1-4)Gal(b1-4)GalNAc
# Outline: as §1
# [20] = target: GlcNAc(a1-4)Gal(b1-4)GlcNAc
# Outline: as §1
# [21] = target: GlcNAc(a1-4)Gal(b1-4)GlcNAc(b1-3)Gal(b1-4)Glc
# Outline: as §1
# [22] = target: GlcNAc(a1-4)Gal(b1-4)GlcNAc(b1-3)Gal(b1-4)GlcNAc
# Outline: as §1
# [23] = target: GlcNAc(a1-4)Gal(b1-4)GlcNAc(b1-3)Gal(b1-4)GlcNAc(b1-3)Gal(b1-4)GlcNAc
# Outline: as §1
# [24] = target: GlcNAc(a1-4)Gal(b1-4)GlcNAc(b1-3)Gal(b1-4)[Fuc(a1-3)]GlcNAc(b1-3)Gal(b1-4)[Fuc(a1-3)]GlcNAc
# Outline: as §1
# [25] = target: GlcNAc(a1-6)Gal(b1-4)GlcNAc
# Outline: as §1
binder,measurement,setting,value
"CD4 (Rattus norvegicus), P05540 (protein) MCRGFSFRHLLPLLLLQLSKLLVVTQGSTSITAYKSEGESAEFSFPLNLGEESLQGELRWKAEKAPSSQSWITFSLKNQKVSVQKSTSNPKFQLSETLPLTLQIPQVSLQFAGSGNLTLTLDRGILYQEVNLVVMKVTQPDSNTLTCEVMGPTSPKMRLILKQENQEARVSRQEKVIQVQAPEAGVWQCLLSEGEEVKMDSKIQVLSKGLNSGGGSGGGTGGGDLAPQMLRELQETNAALQDVRELLRQQVKEITFLKNTVMECDACGLDRNLPPLAPLGPHPETLVKVKDAEDQLGARVGYIELDLNSGKILESFRPEERFPMMSTFKVLLCGAVLSRIDAGQEQLGRRIHYSQNDLVEYSPVTEKHLTDGMTVRELCSAAITMSDNTAANLLLTTIGGPKELTAFLHNMGDHVTRLDRWEPELNEAIPNDERDTTMPVAMATTLRKLLTGELLTLASRQQLIDWMEADKVAGPLLRSALPAGWFIADKSGAGERGSRGIIAALGPDGKPSRIVVIYTTGSQATMDERNRQIAEIGASLIKHW",glycan array binding signal (z-score),Gal3S(b1-4)Glc,0.064
same,glycan array binding signal (z-score),Gal3S(b1-4)Glc6S,0.805
same,glycan array binding signal (z-score),Gal3S(b1-4)GlcNAc,-0.806
same,glycan array binding signal (z-score),[1],3.99
same,glycan array binding signal (z-score),[2],0.693
same,glycan array binding signal (z-score),[3],1.69
same,glycan array binding signal (z-score),Gal3S4S(b1-4)GlcNAc,-0.441
same,glycan array binding signal (z-score),Gal3S6S(b1-4)GlcNAc,-0.623
same,glycan array binding signal (z-score),Gal3S6S(b1-4)GlcNAc6S,-0.506
same,glycan array binding signal (z-score),Gal4S(b1-4)GlcNAc,-0.575
same,glycan array binding signal (z-score),Gal4S6S(b1-4)GlcNAc,1.37
same,glycan array binding signal (z-score),Gal6P(b1-4)GlcNAc,-1.27
same,glycan array binding signal (z-score),Gal6S(b1-3)GlcNAc,-0.837
same,glycan array binding signal (z-score),Gal6S(b1-3)GlcNAc6S,-0.074
same,glycan array binding signal (z-score),Gal6S(b1-4)Glc,1.31
same,glycan array binding signal (z-score),Gal6S(b1-4)Glc6S,0.205
same,glycan array binding signal (z-score),Gal6S(b1-4)GlcNAc,0.34
same,glycan array binding signal (z-score),Gal6S(b1-4)GlcNAc6S,-1.7
same,glycan array binding signal (z-score),GalNAc(a1-3)Gal,-0.574
same,glycan array binding signal (z-score),GalNAc(a1-3)GalNAc,-0.61
same,glycan array binding signal (z-score),[4],-1.17
same,glycan array binding signal (z-score),[5],1.32
same,glycan array binding signal (z-score),GalNAc(b1-3)Gal,0.696
same,glycan array binding signal (z-score),[6],0.189
same,glycan array binding signal (z-score),[7],0.231
same,glycan array binding signal (z-score),[8],0.097
same,glycan array binding signal (z-score),GalNAc(b1-3)GalNAc,-0.004
same,glycan array binding signal (z-score),GalNAc(b1-3)GlcNAc,0.701
same,glycan array binding signal (z-score),GalNAc(b1-4)Gal(b1-4)Glc,-0.645
same,glycan array binding signal (z-score),GalNAc(b1-4)GlcNAc,0.66
same,glycan array binding signal (z-score),[9],0.458
same,glycan array binding signal (z-score),[10],0.941
same,glycan array binding signal (z-score),[11],-0.075
same,glycan array binding signal (z-score),GalNAc(b1-4)GlcNAc6S,-0.666
same,glycan array binding signal (z-score),GalNAc(b1-6)GalNAc,-0.406
same,glycan array binding signal (z-score),GalNAc3S(b1-4)GlcNAc,-0.999
same,glycan array binding signal (z-score),GalNAc3S(b1-4)GlcNAc3S,-0.54
same,glycan array binding signal (z-score),[12],0.419
same,glycan array binding signal (z-score),GalNAc4S6S(b1-4)GlcNAc,-0.505
same,glycan array binding signal (z-score),GalNAc6S(b1-4)GlcNAc,-0.714
same,glycan array binding signal (z-score),Glc(a1-4)Glc,-0.04
same,glycan array binding signal (z-score),[13],-0.256
same,glycan array binding signal (z-score),Glc(a1-6)Glc(a1-6)Glc,-0.167
same,glycan array binding signal (z-score),[14],-0.081
same,glycan array binding signal (z-score),Glc(b1-4)Glc,-0.504
same,glycan array binding signal (z-score),Glc(b1-6)Glc,0.392
same,glycan array binding signal (z-score),GlcA(b1-3)Gal,1.33
same,glycan array binding signal (z-score),GlcA(b1-3)GlcNAc,0.12
same,glycan array binding signal (z-score),GlcA(b1-6)Gal,-0.548
same,glycan array binding signal (z-score),[15],0.355
same,glycan array binding signal (z-score),[16],-0.053
same,glycan array binding signal (z-score),[17],-1.32
same,glycan array binding signal (z-score),[18],-0.079
same,glycan array binding signal (z-score),[19],-1.38
same,glycan array binding signal (z-score),[20],-0.451
same,glycan array binding signal (z-score),[21],-1.51
same,glycan array binding signal (z-score),[22],-0.192
same,glycan array binding signal (z-score),[23],-0.936
same,glycan array binding signal (z-score),[24],0.256
same,glycan array binding signal (z-score),[25],-0.632

# Reformatted: results already given.
binder | measurement | setting | value
CD4 (Rattus norvegicus), P05540 (protein) MCRGFSFRHLLPLLLLQLSKLLVVTQGSTSITAYKSEGESAEFSFPLNLGEESLQGELRWKAEKAPSSQSWITFSLKNQKVSVQKSTSNPKFQLSETLPLTLQIPQVSLQFAGSGNLTLTLDRGILYQEVNLVVMKVTQPDSNTLTCEVMGPTSPKMRLILKQENQEARVSRQEKVIQVQAPEAGVWQCLLSEGEEVKMDSKIQVLSKGLNSGGGSGGGTGGGDLAPQMLRELQETNAALQDVRELLRQQVKEITFLKNTVMECDACGLDRNLPPLAPLGPHPETLVKVKDAEDQLGARVGYIELDLNSGKILESFRPEERFPMMSTFKVLLCGAVLSRIDAGQEQLGRRIHYSQNDLVEYSPVTEKHLTDGMTVRELCSAAITMSDNTAANLLLTTIGGPKELTAFLHNMGDHVTRLDRWEPELNEAIPNDERDTTMPVAMATTLRKLLTGELLTLASRQQLIDWMEADKVAGPLLRSALPAGWFIADKSGAGERGSRGIIAALGPDGKPSRIVVIYTTGSQATMDERNRQIAEIGASLIKHW | glycan array binding signal (z-score) | Gal3S(b1-4)Glc | 0.064
same | glycan array binding signal (z-score) | Gal3S6S(b1-4)GlcNAc | -0.623
same | glycan array binding signal (z-score) | Gal3S6S(b1-4)GlcNAc6S | -0.506
same | glycan array binding signal (z-score) | Gal4S6S(b1-4)GlcNAc | 1.37
same | glycan array binding signal (z-score) | Gal6S(b1-4)Glc | 1.31
same | glycan array binding signal (z-score) | GalNAc(a1-3)GalNAc | -0.61
same | glycan array binding signal (z-score) | [5] | 1.32
same | glycan array binding signal (z-score) | GalNAc(b1-3)Gal | 0.696
same | glycan array binding signal (z-score) | [6] | 0.189
same | glycan array binding signal (z-score) | [7] | 0.231
same | glycan array binding signal (z-score) | [9] | 0.458
same | glycan array binding signal (z-score) | [10] | 0.941
same | glycan array binding signal (z-score) | [12] | 0.419
same | glycan array binding signal (z-score) | Glc(a1-4)Glc | -0.04
same | glycan array binding signal (z-score) | Glc(b1-6)Glc | 0.392
same | glycan array binding signal (z-score) | GlcA(b1-6)Gal | -0.548
same | glycan array binding signal (z-score) | [21] | -1.51
